Measured values: paper PMC5867095
No constants are given. Whether binding was seen depends on the method and setting. Binding seen in cells or lysates may run through a third protein. Some entries that bind do so weakly or less than the wild type.

Amino acid sequences for entries named in this document (tags omitted).
UniProt O43524: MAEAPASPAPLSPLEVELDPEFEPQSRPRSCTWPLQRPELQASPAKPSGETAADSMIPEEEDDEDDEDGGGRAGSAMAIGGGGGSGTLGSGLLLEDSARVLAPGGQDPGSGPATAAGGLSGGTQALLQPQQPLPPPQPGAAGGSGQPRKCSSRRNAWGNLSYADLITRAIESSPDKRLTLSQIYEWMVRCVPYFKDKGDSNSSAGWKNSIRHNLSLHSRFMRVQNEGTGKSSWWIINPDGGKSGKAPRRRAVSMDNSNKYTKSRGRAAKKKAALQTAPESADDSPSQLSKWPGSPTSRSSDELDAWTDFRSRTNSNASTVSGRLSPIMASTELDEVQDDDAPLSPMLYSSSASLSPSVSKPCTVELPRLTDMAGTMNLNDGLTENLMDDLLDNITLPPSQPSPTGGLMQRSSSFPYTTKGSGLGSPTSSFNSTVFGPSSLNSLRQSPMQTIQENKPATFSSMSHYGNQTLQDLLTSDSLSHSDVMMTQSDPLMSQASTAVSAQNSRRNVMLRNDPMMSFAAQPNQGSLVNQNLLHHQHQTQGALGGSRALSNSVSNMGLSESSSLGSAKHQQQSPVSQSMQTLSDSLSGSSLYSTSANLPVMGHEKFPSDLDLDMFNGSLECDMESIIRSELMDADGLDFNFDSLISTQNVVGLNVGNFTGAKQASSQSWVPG
UniProt Q04206: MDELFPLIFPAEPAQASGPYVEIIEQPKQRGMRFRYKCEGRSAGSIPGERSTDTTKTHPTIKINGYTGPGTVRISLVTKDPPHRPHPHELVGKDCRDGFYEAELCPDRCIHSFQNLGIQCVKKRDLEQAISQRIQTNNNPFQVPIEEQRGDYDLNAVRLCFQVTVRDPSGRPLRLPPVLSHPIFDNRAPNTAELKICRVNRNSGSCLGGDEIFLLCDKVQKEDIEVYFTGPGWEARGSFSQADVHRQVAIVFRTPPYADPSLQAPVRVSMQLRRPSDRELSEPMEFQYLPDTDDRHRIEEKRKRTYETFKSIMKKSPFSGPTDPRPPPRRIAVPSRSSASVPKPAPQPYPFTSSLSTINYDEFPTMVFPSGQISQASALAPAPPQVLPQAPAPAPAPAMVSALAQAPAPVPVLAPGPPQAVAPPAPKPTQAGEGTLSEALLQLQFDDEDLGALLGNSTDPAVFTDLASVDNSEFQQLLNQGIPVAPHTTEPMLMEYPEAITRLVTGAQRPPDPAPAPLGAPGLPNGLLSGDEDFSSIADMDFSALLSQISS

Target: forkhead box class O3 (FoxO3) (human (endogenous in 16HBE)) (UniProt O43524)
Test: co-IP; anti-FoxO3 added to 200 μg of nuclear extracts of 16HBE cells, overnight at 4°C, protein A/G agarose beads 2 hrs at 4°C; blotted against p65/NF-κB and FoxO3; cells cultured with/without 20% CSE for 24 hrs

binding: binds
Substance: NF-κB subunit p65 (from UniProt Q04206 1-551)
